Reference: publication PMC8759039

Key:
[1] = molecular target: EjRAV2 (Eriobotrya japonica) (UniProt A0A482LTM5); experiment: EMSA; conditions: Beyotime EMSA/Gel Shift kit, chemiluminescent biotin detection; pH and temperature not stated; recombinant protein; residues 1-406; protein details: 6xHis (pET28a); label: biotin (ends)
[2] = molecular target: EjRAV1 (Eriobotrya japonica) (UniProt A0A482LZ61); experiment: EMSA; conditions: Beyotime EMSA/Gel Shift kit, chemiluminescent biotin detection; pH and temperature not stated; recombinant protein; residues 1-403; protein details: 6xHis (pET28a); label: biotin (ends)

GTAGTCGTACGGACGATGTTGATGTATTGCTAACATTGT (double strand) [EjSOC1-1-P3]
binding result [1]: no binding | binding result [2]: no binding

CAAAATAAAATGAAAAGTACAACAAATTAGGAGACAAGATGCCT (double strand) [EjFT2-P4]
binding result [1]: no binding | binding result [2]: no binding

CAGGATCTATTGCCTTCCACCTGATCTATACCATCATTCCA (double strand) [EjSOC1-1-P5]
binding result [1]: no binding | binding result [2]: no binding

AAAGGGTAGGTGTGTTGGTTGCCTAAGGTCAATCATC (double strand) [EjSOC1-1-P4]
binding result [1]: no binding | binding result [2]: no binding

AGCAATACAGCATGCAACGCAACAGAATATAAATAGCCAATAGG (double strand) [EjFT2-P5]
binding result [1]: no binding | binding result [2]: no binding

GCACAAAATTTTGGAATCATCTTGTTGAGGATGAATTTCACAGTGAT (double strand) [EjFT2-P2]
binding result [1]: no binding | binding result [2]: no binding

AATTAATGCTATAGGCTTGTTGCGTTTTCGACTTCTGATTGG (double strand) [EjSOC1-1-P2]
binding result [1]: no binding | binding result [2]: no binding

CATTTCTCAAATAGCACTTATCAACATATATTCTGGATCAATTCAGG (double strand) [EjFT2-P1]
binding result [1]: no binding | binding result [2]: no binding

GGTTAAGTAATAATCTAATAATCAACAATCACATTATTTAGTT (double strand) [EjSOC1-2-P1]
binding result [1]: no binding | binding result [2]: no binding

GTGTATGGATATAAAGTTCAACATTGAAAATCTAAAATAAT (double strand) [EjFT2-P3]
binding result [1]: no binding | binding result [2]: no binding

GGAAAAGGGCAAAATGTGTTGTGCCAGACAAGGTGG (double strand) [EjSOC1-1-P1]
binding result [1]: no binding | binding result [2]: no binding

Negatives hold for the conditions tested. At least one verdict was read from the data and is not stated in words by the source.
